Assay results from patent US20180028686A1 (priority 2014, published 2018).
No constants are given. Whether binding was seen depends on the method and setting. Some results given as binding are weak or reduced against the parent protein; the word gives no strength.

Sequences of proteins named here, by UniProt entry; tags and fusion partners are left off. Residues count along the entry.
UniProt P08581, residues 25-1390: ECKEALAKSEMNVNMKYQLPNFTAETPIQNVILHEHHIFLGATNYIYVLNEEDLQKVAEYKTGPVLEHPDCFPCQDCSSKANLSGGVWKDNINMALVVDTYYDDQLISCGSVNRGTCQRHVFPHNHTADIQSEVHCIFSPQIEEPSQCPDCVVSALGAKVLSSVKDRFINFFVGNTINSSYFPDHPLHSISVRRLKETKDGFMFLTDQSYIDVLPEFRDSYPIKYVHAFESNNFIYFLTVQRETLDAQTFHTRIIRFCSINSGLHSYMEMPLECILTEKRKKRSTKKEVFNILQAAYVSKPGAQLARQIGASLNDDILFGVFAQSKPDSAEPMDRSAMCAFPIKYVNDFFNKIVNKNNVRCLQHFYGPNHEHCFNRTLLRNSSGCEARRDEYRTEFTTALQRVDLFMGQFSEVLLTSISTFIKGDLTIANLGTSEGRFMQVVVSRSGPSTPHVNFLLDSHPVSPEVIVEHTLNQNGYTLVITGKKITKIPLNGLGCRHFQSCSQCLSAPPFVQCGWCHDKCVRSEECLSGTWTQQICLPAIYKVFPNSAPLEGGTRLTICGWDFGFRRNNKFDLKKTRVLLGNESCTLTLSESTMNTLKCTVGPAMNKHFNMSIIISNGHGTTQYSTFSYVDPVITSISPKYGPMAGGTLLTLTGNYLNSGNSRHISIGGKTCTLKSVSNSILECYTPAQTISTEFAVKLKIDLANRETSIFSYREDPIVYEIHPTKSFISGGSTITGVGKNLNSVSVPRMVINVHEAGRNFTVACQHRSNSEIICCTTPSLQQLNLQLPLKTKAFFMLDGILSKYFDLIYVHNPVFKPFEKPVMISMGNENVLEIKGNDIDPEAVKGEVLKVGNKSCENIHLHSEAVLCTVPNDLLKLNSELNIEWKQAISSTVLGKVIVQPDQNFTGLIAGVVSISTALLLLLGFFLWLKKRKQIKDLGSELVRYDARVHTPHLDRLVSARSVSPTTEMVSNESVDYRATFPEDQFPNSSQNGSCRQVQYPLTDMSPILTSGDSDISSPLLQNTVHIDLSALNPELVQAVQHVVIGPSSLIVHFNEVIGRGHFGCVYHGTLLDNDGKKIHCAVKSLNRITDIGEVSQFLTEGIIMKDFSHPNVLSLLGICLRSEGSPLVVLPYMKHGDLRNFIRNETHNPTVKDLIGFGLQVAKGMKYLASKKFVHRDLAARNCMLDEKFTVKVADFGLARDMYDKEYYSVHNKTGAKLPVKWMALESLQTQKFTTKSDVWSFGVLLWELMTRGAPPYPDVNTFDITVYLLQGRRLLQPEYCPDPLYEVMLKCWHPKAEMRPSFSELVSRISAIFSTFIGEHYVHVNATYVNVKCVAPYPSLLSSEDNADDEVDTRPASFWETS

B1: MET binding peptide ASVHFPP (SEQ ID NO: 121) (peptide)
peptide: ASVHFPP
B2: MET binding peptide TATFWFQ (SEQ ID NO: 122) (peptide)
peptide: TATFWFQ
B3: MET binding peptide TSPVALL (SEQ ID NO: 123) (peptide)
peptide: TSPVALL
B4: MET binding peptide IPLKVHP (SEQ ID NO: 124) (peptide)
peptide: IPLKVHP
B5: MET binding peptide WPRLTNM (SEQ ID NO: 125) (peptide)
peptide: WPRLTNM

Molecular target: MET receptor (a.k.a. hepatocyte growth factor receptor, expressed by gene c-MET) (UniProt P08581)
Experiment: phage display biopanning; binding assay not described

| Binder | binding |
| --- | --- |
| B1 | binds |
| B2 | binds |
| B3 | binds |
| B4 | binds |
| B5 | binds |
